Some of the results follow.
Legend:
Assay in all cases: log2 fold change, soluble protein after heating vs DMSO (PISA); higher = thermal stabilisation; K562 lysate, 10 uM; active = over 0.2 and 3.5 SD of the protein, either way, in both replicates (recomputed)
[1] = compound: C1=CC=C(C=C1)[C@H](COC2=CC3=C(C=C2)NC(=O)N3)NC(=O)C4=CC=CN(C4=O)CC5=CC(=C(C=C5)F)F
In short: (§1)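 Quantification was by TMTpro 16plex LC-MS/MS with equalised channel sums, applied to the supernatant after 21,000xg for 90 min. Samples were crude K562 extract at 1 mg/mL protein in PBS pH 7.4 with 1 mM MgCl2, treated with 10 μM compound for 30 min, heated for 3 min across 48°C-58°C, pooled and brought to 0.5% NP-40 at 4°C. Values are log-two fold changes in thermal stability relative to solvent controls, from duplicates.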

By UniProt entry, the sequences of proteins in these tests, tags left out. Where a name states a change or a piece, a line headed by the entry shows the natural chain unless it says otherwise.
UniProt Q9UQ49: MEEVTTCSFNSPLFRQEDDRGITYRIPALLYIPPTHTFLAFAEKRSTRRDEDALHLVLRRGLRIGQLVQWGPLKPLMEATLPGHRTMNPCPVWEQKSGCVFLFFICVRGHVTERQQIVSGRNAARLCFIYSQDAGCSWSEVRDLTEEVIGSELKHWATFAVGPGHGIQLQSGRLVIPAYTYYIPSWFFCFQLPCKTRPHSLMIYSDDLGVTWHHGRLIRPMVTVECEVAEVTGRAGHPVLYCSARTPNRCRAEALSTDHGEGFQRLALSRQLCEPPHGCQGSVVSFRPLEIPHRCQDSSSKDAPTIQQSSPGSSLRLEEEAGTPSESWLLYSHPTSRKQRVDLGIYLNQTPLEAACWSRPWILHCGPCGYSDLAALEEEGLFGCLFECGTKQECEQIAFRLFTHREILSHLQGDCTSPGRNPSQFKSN
UniProt P25963: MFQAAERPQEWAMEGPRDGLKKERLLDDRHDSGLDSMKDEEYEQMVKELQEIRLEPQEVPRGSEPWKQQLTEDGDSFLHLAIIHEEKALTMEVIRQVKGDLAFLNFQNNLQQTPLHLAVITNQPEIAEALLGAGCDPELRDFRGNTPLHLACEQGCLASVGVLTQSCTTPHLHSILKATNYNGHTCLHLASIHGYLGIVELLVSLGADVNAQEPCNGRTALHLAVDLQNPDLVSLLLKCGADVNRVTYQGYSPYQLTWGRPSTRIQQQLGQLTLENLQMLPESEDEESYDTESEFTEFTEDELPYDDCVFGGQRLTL
UniProt O94916: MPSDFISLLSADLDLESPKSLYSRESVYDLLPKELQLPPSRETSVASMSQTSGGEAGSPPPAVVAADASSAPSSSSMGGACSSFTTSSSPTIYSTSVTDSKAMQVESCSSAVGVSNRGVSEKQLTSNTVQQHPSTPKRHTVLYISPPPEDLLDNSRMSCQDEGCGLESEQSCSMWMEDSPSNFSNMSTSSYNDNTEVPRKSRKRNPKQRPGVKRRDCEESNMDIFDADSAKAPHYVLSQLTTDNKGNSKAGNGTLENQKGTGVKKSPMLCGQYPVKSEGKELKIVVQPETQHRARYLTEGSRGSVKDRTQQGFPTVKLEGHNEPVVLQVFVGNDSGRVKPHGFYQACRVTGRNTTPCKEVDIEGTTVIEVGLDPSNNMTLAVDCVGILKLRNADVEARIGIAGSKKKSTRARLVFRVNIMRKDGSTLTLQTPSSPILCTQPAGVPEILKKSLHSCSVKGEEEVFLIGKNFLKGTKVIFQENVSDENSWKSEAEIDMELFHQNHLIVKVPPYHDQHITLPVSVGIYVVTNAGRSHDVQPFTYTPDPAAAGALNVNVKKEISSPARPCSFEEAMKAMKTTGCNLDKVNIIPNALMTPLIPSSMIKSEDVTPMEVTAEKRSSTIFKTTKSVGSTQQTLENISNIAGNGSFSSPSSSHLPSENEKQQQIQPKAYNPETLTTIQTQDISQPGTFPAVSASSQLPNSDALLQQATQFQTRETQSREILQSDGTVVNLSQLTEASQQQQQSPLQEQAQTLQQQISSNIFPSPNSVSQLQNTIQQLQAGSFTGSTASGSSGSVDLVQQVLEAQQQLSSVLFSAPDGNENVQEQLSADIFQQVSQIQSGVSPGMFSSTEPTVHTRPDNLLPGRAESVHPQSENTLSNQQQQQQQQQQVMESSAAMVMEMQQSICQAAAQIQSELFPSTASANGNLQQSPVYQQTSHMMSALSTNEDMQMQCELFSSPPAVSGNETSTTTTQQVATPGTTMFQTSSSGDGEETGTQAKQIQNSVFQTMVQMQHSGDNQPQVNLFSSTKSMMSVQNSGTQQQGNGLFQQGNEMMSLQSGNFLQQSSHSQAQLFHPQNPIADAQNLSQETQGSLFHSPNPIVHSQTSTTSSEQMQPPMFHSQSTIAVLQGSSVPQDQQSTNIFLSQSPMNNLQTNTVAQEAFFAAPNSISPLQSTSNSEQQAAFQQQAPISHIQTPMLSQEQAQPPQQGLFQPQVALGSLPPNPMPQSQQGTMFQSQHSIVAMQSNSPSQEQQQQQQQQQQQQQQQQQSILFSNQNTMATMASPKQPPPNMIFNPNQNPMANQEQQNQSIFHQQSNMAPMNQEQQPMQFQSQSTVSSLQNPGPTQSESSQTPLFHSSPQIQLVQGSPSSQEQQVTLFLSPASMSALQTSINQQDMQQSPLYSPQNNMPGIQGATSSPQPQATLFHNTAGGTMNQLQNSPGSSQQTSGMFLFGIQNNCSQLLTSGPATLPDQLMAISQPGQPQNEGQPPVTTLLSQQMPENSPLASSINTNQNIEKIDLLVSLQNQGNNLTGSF
UniProt O75438, whole entry, looked up: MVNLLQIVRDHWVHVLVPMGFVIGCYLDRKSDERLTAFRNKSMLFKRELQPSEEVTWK
UniProt Q9NQR4: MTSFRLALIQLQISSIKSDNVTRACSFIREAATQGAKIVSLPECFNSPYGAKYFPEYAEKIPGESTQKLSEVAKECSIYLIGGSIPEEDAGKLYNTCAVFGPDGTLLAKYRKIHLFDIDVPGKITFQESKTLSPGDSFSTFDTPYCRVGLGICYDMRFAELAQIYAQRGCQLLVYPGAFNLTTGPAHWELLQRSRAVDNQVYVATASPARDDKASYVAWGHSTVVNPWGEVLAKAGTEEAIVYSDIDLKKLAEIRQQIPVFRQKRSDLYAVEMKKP
UniProt P19404, whole entry, looked up: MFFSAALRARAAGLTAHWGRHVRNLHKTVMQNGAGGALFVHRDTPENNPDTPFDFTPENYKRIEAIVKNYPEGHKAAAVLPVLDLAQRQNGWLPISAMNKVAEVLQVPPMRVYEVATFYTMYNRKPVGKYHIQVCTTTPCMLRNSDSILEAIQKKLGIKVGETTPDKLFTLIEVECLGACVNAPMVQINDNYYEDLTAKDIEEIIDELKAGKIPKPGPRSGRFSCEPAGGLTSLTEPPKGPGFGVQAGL
UniProt P56181: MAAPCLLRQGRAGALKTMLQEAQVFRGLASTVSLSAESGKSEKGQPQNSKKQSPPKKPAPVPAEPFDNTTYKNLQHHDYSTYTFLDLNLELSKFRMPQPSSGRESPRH
UniProt Q9NVZ3: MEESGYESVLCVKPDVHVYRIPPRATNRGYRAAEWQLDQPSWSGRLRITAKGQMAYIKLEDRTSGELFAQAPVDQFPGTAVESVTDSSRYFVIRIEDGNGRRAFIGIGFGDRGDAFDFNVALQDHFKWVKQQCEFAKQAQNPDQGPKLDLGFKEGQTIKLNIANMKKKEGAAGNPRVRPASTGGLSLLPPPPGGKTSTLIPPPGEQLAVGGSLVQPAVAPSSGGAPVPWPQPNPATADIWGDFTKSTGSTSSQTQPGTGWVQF

[2] = compound: CC1=C(SC2=C1C(=N[C@H](C3=NN=C(N32)C)CC(=O)N)C4=CC=C(C=C4)Cl)C
In short: as §1

[3] = compound: CC1=C2C(=CC=C1)N=C(N(C2=O)C3=CC=CC=C3C)CN4C=NC5=C(N=CN=C54)N
In short: as §1

[4] = compound: Cc1sc2c(c1C)C(c1ccc(Cl)cc1)=N[C@@H](CC(=O)OC(C)(C)C)c1nnc(C)n1-2
In short: as §1

[5] = compound: c1ccc([C@@H]2C[C@H]2NC2CCNCC2)cc1
In short: as §1

Measured: log2 fold change

NEU3 isoform 2 (UniProt Q9UQ49)
inactive: [1] -0.104 | [2] 0.081 | [3] 0.061 | [4] -0.001

NFKBIA (UniProt P25963)
inactive: [1] 0.086 | [2] 0.021 | [3] 0.084 | [4] 0.016

NFAT5 isoform 4 (UniProt O94916)
inactive: [1] -0.208 | [2] 0.11

NDUFB1 (UniProt O75438)
inactive: [1] 0.016 | [2] 0.029 | [3] 0.022 | [4] -0.063 | [5] 0.06

Reprinted from above (2 entries):
NFKBIA (UniProt P25963)
inactive: [1] 0.086 | [2] 0.021 | [3] 0.084 | [4] 0.016

NFAT5 isoform 4 (UniProt O94916)
inactive: [1] -0.208 | [2] 0.11

Remaining list, next part:

NDRG2 (UniProt G3V2A6)
inactive: [1] -0.046 | [2] -0.064

NIT2 (UniProt Q9NQR4)
inactive: [1] -0.033 | [2] 0.017 | [3] 0.027 | [4] -0.007 | [5] 0.058

NDUFV2 (UniProt P19404)
inactive: [1] -0.03 | [2] -0.053 | [3] -0.014 | [4] -0.009 | [5] -0.019

NEB isoform 3 (UniProt P20929)
inactive: [1] 0.128 | [2] -0.043 | [3] 0.127 | [4] 0.046 | [5] -0.214

NDUFV3 isoform 2 (UniProt P56181)
inactive: [1] 0.036 | [2] -0.018 | [3] 0.026 | [4] -0.056 | [5] -0.045

NECAP2 (UniProt Q9NVZ3)
inactive: [1] 0.071 | [2] -0.013 | [3] -0.012 | [4] -0.003 | [5] 0.03
